{"source": "patent US20260001792A1", "about": "“METHOD FOR PRODUCING SLIME-SUPPRESSING AUXILIARY AGENT FOR REVERSE OSMOSIS MEMBRANE, SLIME-SUPPRESSING AUXILIARY AGENT FOR REVERSE OSMOSIS MEMBRANE, AND WATER TREATMENT METHOD” (ORGANO CORPORATION, priority 2022, published 2026)", "assay": "Effects on membrane: flux and EC rejection rate before/after contact with agent", "details": "ESPA2, pH 7, after contact at CT value 30,000"}
{"smiles": "OCl", "note": "[NaClO, sodium hypochlorite]", "values": [{"measurement": "EC rejection rate after contact", "result": 88.5, "unit": "%"}]}
